Measurements reported in PubChem BioAssay AID1259326 (Drosophila RNAi Screening Center, 2017)
This is one part, drawn at random, of 573 reagents tested. In the full data, 39 (6.8%) are marked active. 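All actives have raised ATP, meaning more surviving cells; in these data active calls sit at averaged z-scores near 1.5 or above.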 Raw values are not corrected between plates. Not given: the amount of reagent.

- Test: 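Knock-downs that shift cellular ATP after a high zinc chloride dose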
- Cells: Drosophila S2R+ cells
- Reagent: long dsRNA against Drosophila genes
- Timing: about 5 days (4 days of RNAi, then 1 day of zinc)
- Challenge: zinc chloride added to 15 mM final for one day
- Measured: 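Luminescent ATP signal marks surviving cells, read after RNAi for 4 days then 15 mM zinc chloride for 1 day; z-scores are replicate means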
- Scale: averaged z-score: higher = more ATP than other wells, i.e. more surviving cells, after zinc; ATP luminescence: higher = more ATP, i.e. more surviving cells
- Call rule: 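Active if the averaged z-score exceeds 1.5 or falls under -1.5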

predicted target | DRSC id | averaged z-score | ATP luminescence, replicate 1 | ATP luminescence, replicate 2 | outcome
wal | DRSC07717 | -0.19 | 97074 | 70530 | inactive
wal | DRSC26330 | -0.058 | 79017 | 73250 | inactive
wal | DRSC41257 | -0.066 | 67132 | 76084 | inactive
Rab9Fb | DRSC19854 | 0.293 | 94902 | 1.05e5 | inactive
Rab9Fb | DRSC41238 | -0.104 | 72191 | 71827 | inactive
UBL3 | DRSC23292 | -0.349 | 84477 | 74506 | inactive
UBL3 | DRSC37210 | 0.0406 | 82602 | 74644 | inactive
UBL3 | DRSC41255 | -0.417 | 60272 | 70510 | inactive
bur | DRSC03163 | -0.926 | 65211 | 57528 | inactive
bur | DRSC41161 | -0.302 | 59114 | 72453 | inactive
Atg8a | DRSC18024 | 1.55 | 98686 | 1.01e5 | active
Atg8a | DRSC24298 | 0.605 | 1.02e5 | 66857 | inactive
Atg8a | DRSC40874 | 2.97 | 1.77e5 | 98711 | active
Caf1-55 | DRSC16596 | 0.735 | 1.13e5 | 88861 | inactive
Caf1-55 | DRSC37396 | 1.98 | 1.31e5 | 1.04e5 | active
Caf1-55 | DRSC40758 | 2.19 | 1.16e5 | 1.08e5 | active
Cam | DRSC07354 | -0.132 | 80698 | 76324 | inactive
Cam | DRSC36150 | -0.0123 | 71848 | 81162 | inactive
Cam | DRSC41162 | -0.329 | 67715 | 71205 | inactive
br | DRSC25765 | 0.17 | 79052 | 86479 | inactive
br | DRSC40672 | 0.78 | 1.02e5 | 87440 | inactive
CG4572 | DRSC15603 | -0.0429 | 1.04e5 | 77321 | inactive
CG4572 | DRSC40944 | -0.149 | 82036 | 65974 | inactive
CG4572 | DRSC41188 | -0.0186 | 75999 | 72723 | inactive
nudC | DRSC11096 | 0.0365 | 73014 | 74129 | inactive
nudC | DRSC11097 | 0.0672 | 94908 | 75861 | inactive
nudC | DRSC35899 | -0.468 | 76445 | 57185 | inactive
p38a | DRSC16743 | -0.281 | 90253 | 72500 | inactive
p38a | DRSC36706 | -0.343 | 77937 | 70956 | inactive
p38a | DRSC37322 | -0.0563 | 77096 | 70373 | inactive
Pi3K59F | DRSC28890 | -0.176 | 84232 | 79412 | inactive
Pi3K59F | DRSC36696 | 0.522 | 96728 | 81333 | inactive
Pi3K59F | DRSC37321 | -0.332 | 52538 | 75293 | inactive
Abcd3 | DRSC19488 | 0.15 | 1.02e5 | 73426 | inactive
Abcd3 | DRSC29341 | 3.25 | 1.64e5 | 1.05e5 | active
Abcd3 | DRSC41168 | -0.284 | 67082 | 69035 | inactive
beta'COP | DRSC26650 | 2.6 | 1.38e5 | 1.23e5 | active
beta'COP | DRSC30701 | 2.55 | 1.26e5 | 1.30e5 | active
beta'COP | DRSC30702 | 2.48 | 1.44e5 | 99071 | active
NANS | DRSC27626 | -0.141 | 90819 | 79909 | inactive
NANS | DRSC34856 | -0.147 | 76102 | 74935 | inactive
NANS | DRSC41242 | 0.16 | 65074 | 84702 | inactive
GAPcenA | DRSC10771 | -0.557 | 70013 | 76342 | inactive
GAPcenA | DRSC41200 | -0.654 | 54733 | 72328 | inactive
Rpt2 | DRSC25012 | -0.332 | 90178 | 74918 | inactive
Rpt2 | DRSC32051 | 0.958 | 1.08e5 | 82671 | inactive
Rpt2 | DRSC32052 | 0.457 | 79566 | 82294 | inactive
Icmt | DRSC09834 | 0.0696 | 98968 | 85205 | inactive
Icmt | DRSC39884 | -0.0139 | 76903 | 79789 | inactive
Icmt | DRSC41166 | 0.178 | 78417 | 80956 | inactive
Pex23 | DRSC10323 | -0.398 | 60821 | 69070 | inactive
Pex23 | DRSC10645 | -0.2 | 92603 | 72591 | inactive
Pex23 | DRSC28370 | -0.00785 | 85656 | 60632 | inactive
scf | DRSC08735 | 0.0257 | 83632 | 81041 | inactive
scf | DRSC41243 | 0.00543 | 72603 | 75038 | inactive
CG42233 | DRSC15416 | -0.0834 | 66154 | 77714 | inactive
CG42233 | DRSC24948 | 0.595 | 1.06e5 | 91677 | inactive
CG42233 | DRSC26880 | -0.315 | 79296 | 66669 | inactive
Hel25E | DRSC28348 | 4.19 | 84026 | 1.87e5 | active
Hel25E | DRSC30679 | 7.87 | 2.05e5 | 2.22e5 | active
Hel25E | DRSC30680 | 7.39 | 2.46e5 | 1.78e5 | active
Mhc | DRSC25959 | -0.306 | 83066 | 73169 | inactive
Mhc | DRSC34448 | -0.32 | 75518 | 66823 | inactive
Mhc | DRSC34449 | 0.984 | 91677 | 95005 | inactive
Tao | DRSC19573 | -0.0926 | 1.13e5 | 64319 | inactive
Tao | DRSC28431 | 0.516 | 92274 | 79360 | inactive
Tao | DRSC34597 | 0.182 | 67114 | 82796 | inactive
Gfat2 | DRSC14598 | -0.059 | 96103 | 74369 | inactive
Gfat2 | DRSC26948 | -0.294 | 77858 | 57528 | inactive
Gfat2 | DRSC35756 | -0.451 | 61558 | 72122 | inactive

An excerpt from above, limited to “ATP luminescence, replicate 2”.
UBL3 [DRSC41255]	70510
bur [DRSC03163]	57528
bur [DRSC41161]	72453
Atg8a [DRSC18024]	1.01e5
Atg8a [DRSC24298]	66857
Atg8a [DRSC40874]	98711
Caf1-55 [DRSC16596]	88861
Caf1-55 [DRSC37396]	1.04e5
Caf1-55 [DRSC40758]	1.08e5
Cam [DRSC07354]	76324
